Results from the supplement of paper PMC7661543.
The effect of the compound repeats well; differences between the knockouts mostly do not.

System: SKBR3
Experiment: relative cell number vs DMSO control (72 h) (% of DMSO); higher = less growth inhibition (more cells)
Method: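 QMAP-Seq: a pool of 5 breast cancer cell lines (ZR-75-1, SKBR3, HCC-38, MDA-MB-231, BT-20), each carrying 12 doxycycline-inducible Cas9 sgRNA perturbations (11 knockouts plus non-targeting sgNT), was treated with compounds for 72 h at four 10-fold doses (10 nM-10 uM or 1 nM-1 uM range). Barcodes were amplified and sequenced, and cell number was interpolated from 293T spike-in standard curves. The result is expressed as % of the median of DMSO wells. Two biological replicates.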

CCOC(=O)c1ccc(N2NC(=O)C(=Cc3ccc([N+](=O)[O-])o3)C2=O)cc1 [PYR41]
Conditions | relative cell number
sgRNA knockout: sgATF3, 10 nM | 104
sgRNA knockout: sgATF3, 100 nM | 79.1
sgRNA knockout: sgATF3, 1000 nM | 104
sgRNA knockout: sgATF3, 10000 nM | 105
sgRNA knockout: sgATF4, 10 nM | 97.013
sgRNA knockout: sgATF4, 100 nM | 89.4
sgRNA knockout: sgATF4, 1000 nM | 117
sgRNA knockout: sgATF4, 10000 nM | 88.1
sgRNA knockout: sgATF6, 10 nM | 98.9
sgRNA knockout: sgATF6, 100 nM | 95.9
sgRNA knockout: sgATF6, 1000 nM | 106
sgRNA knockout: sgATF6, 10000 nM | 90.4
sgRNA knockout: sgATG7, 10 nM | 111
sgRNA knockout: sgATG7, 100 nM | 89.5
sgRNA knockout: sgATG7, 1000 nM | 124
sgRNA knockout: sgATG7, 10000 nM | 97.3
sgRNA knockout: sgERN1, 10 nM | 99.5
sgRNA knockout: sgERN1, 100 nM | 85
sgRNA knockout: sgERN1, 1000 nM | 113
sgRNA knockout: sgERN1, 10000 nM | 106
sgRNA knockout: sgHSF1, 10 nM | 87.6
sgRNA knockout: sgHSF1, 100 nM | 91.8
sgRNA knockout: sgHSF1, 1000 nM | 112
sgRNA knockout: sgHSF1, 10000 nM | 90.55
sgRNA knockout: sgHSF2, 10 nM | 99.2
sgRNA knockout: sgHSF2, 100 nM | 103
sgRNA knockout: sgHSF2, 1000 nM | 110
sgRNA knockout: sgHSF2, 10000 nM | 102
sgRNA knockout: sgKEAP1, 10 nM | 92.6
sgRNA knockout: sgKEAP1, 100 nM | 85.6
sgRNA knockout: sgKEAP1, 1000 nM | 99.6
sgRNA knockout: sgKEAP1, 10000 nM | 101
sgRNA knockout: sgNFE2L2, 10 nM | 105
sgRNA knockout: sgNFE2L2, 100 nM | 74.6
sgRNA knockout: sgNFE2L2, 1000 nM | 87.9
sgRNA knockout: sgNFE2L2, 10000 nM | 86.7
sgRNA knockout: sgSLC35F2, 10 nM | 86
sgRNA knockout: sgSLC35F2, 100 nM | 73.8
sgRNA knockout: sgSLC35F2, 1000 nM | 108
sgRNA knockout: sgSLC35F2, 10000 nM | 88.5
sgRNA knockout: sgXBP1, 10 nM | 106
sgRNA knockout: sgXBP1, 100 nM | 102
sgRNA knockout: sgXBP1, 1000 nM | 140
sgRNA knockout: sgXBP1, 10000 nM | 102

O=C(CCc1ccc(O)cc1)c1c(O)cc(O)cc1O [Phloretin]
Conditions | relative cell number
sgRNA knockout: sgATF3, 10 nM | 103
sgRNA knockout: sgATF3, 100 nM | 115
sgRNA knockout: sgATF3, 1000 nM | 113
sgRNA knockout: sgATF3, 10000 nM | 109
sgRNA knockout: sgATF4, 10 nM | 93.9
sgRNA knockout: sgATF4, 100 nM | 107
sgRNA knockout: sgATF4, 1000 nM | 86.9
sgRNA knockout: sgATF4, 10000 nM | 94.5
sgRNA knockout: sgATF6, 10 nM | 91.4
sgRNA knockout: sgATF6, 100 nM | 92.1
sgRNA knockout: sgATF6, 1000 nM | 88.2
sgRNA knockout: sgATF6, 10000 nM | 96.9
sgRNA knockout: sgATG7, 10 nM | 75.4
sgRNA knockout: sgATG7, 100 nM | 104
sgRNA knockout: sgATG7, 1000 nM | 98.5
sgRNA knockout: sgATG7, 10000 nM | 100
sgRNA knockout: sgERN1, 10 nM | 90.1
sgRNA knockout: sgERN1, 100 nM | 92.5
sgRNA knockout: sgERN1, 1000 nM | 95.1
sgRNA knockout: sgERN1, 10000 nM | 94.3
sgRNA knockout: sgHSF1, 10 nM | 82.9
sgRNA knockout: sgHSF1, 100 nM | 102
sgRNA knockout: sgHSF1, 1000 nM | 92.1
sgRNA knockout: sgHSF1, 10000 nM | 84.7
sgRNA knockout: sgHSF2, 10 nM | 83.8
sgRNA knockout: sgHSF2, 100 nM | 84.1
sgRNA knockout: sgHSF2, 1000 nM | 80.7
sgRNA knockout: sgHSF2, 10000 nM | 92.8
sgRNA knockout: sgKEAP1, 10 nM | 87.6
sgRNA knockout: sgKEAP1, 100 nM | 93
sgRNA knockout: sgKEAP1, 1000 nM | 89.7
sgRNA knockout: sgKEAP1, 10000 nM | 101
sgRNA knockout: sgNFE2L2, 10 nM | 82.5
sgRNA knockout: sgNFE2L2, 100 nM | 86.5
sgRNA knockout: sgNFE2L2, 1000 nM | 112
sgRNA knockout: sgNFE2L2, 10000 nM | 112
sgRNA knockout: sgSLC35F2, 10 nM | 100
sgRNA knockout: sgSLC35F2, 100 nM | 103
sgRNA knockout: sgSLC35F2, 1000 nM | 82.2
sgRNA knockout: sgSLC35F2, 10000 nM | 103
sgRNA knockout: sgXBP1, 10 nM | 89.5
sgRNA knockout: sgXBP1, 100 nM | 130
sgRNA knockout: sgXBP1, 1000 nM | 93.5
sgRNA knockout: sgXBP1, 10000 nM | 101
